In brackets after ≈: the same amount, converted by molar mass.
Tested on: Mycobacterium tuberculosis
Experiment: Antimycobacterial activity against Mycobacterium bovis BCG assessed as inhibition of visible mycobacterial growth by broth microdilution method
Format: functional
Conditions: variant bovis BCG

CO[C@H]1/C=C/O[C@@]2(C)Oc3c(C)c(O)c4c(O)c(c(/C=N/N5CCN(C)CC5)c(O)c4c3C2=O)NC(=O)/C(C)=C\C=C\[C@H](C)[C@H](O)[C@@H](C)[C@@H](O)[C@@H](C)[C@H](OC(C)=O)[C@@H]1C [RIFAMPIN]
MIC: 0.1 µg/mL (≈ 0.122 µM)
